Assay results published in patent US20150374644A1, “Therapeutic Composition for the Treatment of Perianal Disorders” (priority 2013, published 2015).
At least one compound was matched to its structure with a doubt left.

Test: Topical treatment of patients with anal fissure
Assay type: in vivo, human
Settings: Patient 5, previous treatment with single agent

Compound: COC(=O)C1=C(C)NC(C)=C(C(=O)OC)C1c1ccccc1[N+](=O)[O-] [nifedipine]
- resolution of pain and bleeding / improvement of symptoms: without resolution of pain and bleeding or improvement of symptoms
